Results published in PMC4226561.
These are yes or no findings as the source states them, for the method shown. Some binding calls cover weakened binding; strength is not graded here. Sequences can lack the tags named with a protein.

T1: KOR1N, N-terminal part of KOR1 with the transmembrane domain (AA 1 to 94), MbYTH fusion (Arabidopsis thaliana) (UniProt Q38890)
T1 sequence: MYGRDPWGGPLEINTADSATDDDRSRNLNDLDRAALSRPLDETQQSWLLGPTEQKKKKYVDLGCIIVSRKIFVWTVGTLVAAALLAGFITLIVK

T2: KORRIGAN1 (KOR1), complete protein (AA 1 to 621), MbYTH fusion (Arabidopsis thaliana) (UniProt Q38890)
T2 sequence: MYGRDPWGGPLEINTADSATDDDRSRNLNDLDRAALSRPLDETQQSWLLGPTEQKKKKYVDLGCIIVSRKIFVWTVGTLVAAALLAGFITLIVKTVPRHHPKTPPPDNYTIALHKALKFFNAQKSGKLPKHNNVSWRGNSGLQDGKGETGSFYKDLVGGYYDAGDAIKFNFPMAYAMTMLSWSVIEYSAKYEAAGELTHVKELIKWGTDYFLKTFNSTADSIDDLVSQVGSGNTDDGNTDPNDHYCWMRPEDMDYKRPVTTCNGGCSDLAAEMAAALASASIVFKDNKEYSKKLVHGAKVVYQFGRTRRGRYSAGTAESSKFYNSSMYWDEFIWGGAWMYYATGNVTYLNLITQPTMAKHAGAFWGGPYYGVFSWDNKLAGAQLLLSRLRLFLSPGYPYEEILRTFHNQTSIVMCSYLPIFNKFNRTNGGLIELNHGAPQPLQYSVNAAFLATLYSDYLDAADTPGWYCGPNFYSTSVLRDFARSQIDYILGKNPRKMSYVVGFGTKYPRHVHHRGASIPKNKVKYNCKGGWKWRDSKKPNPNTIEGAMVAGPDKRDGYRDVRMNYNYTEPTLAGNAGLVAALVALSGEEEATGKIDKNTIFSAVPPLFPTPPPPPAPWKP

T3: KOR1TMD, only the transmembrane domain of KOR1 (AA 70 to 94), MbYTH fusion (Arabidopsis thaliana) (UniProt Q38890)
T3 sequence: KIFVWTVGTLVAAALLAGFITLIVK

T4: KOR1C, transmembrane domain plus the C-terminal part of KOR1 (AA 70 to 621), MbYTH fusion (Arabidopsis thaliana) (UniProt Q38890)
T4 sequence: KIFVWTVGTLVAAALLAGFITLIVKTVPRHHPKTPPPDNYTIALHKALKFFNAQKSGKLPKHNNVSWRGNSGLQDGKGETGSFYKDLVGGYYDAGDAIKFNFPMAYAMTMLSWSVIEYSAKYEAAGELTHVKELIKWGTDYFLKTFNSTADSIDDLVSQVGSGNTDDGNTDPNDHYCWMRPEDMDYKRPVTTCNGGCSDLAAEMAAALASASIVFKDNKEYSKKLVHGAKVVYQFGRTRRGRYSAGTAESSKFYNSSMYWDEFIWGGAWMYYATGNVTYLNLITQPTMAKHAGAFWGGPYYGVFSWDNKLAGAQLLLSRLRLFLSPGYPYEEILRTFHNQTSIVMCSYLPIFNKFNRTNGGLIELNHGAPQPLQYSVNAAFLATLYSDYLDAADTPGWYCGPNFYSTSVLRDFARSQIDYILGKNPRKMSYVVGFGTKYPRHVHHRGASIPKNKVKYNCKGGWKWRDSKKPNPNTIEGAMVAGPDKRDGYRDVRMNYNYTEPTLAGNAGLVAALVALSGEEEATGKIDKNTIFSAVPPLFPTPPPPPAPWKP

B1: CESA1 (cellulose synthase, primary cell wall), MbYTH fusion (protein, UniProt O48946 1-1081)
chain: MEASAGLVAGSYRRNELVRIRHESDGGTKPLKNMNGQICQICGDDVGLAETGDVFVACNECAFPVCRPCYEYERKDGTQCCPQCKTRFRRHRGSPRVEGDEDEDDVDDIENEFNYAQGANKARHQRHGEEFSSSSRHESQPIPLLTHGHTVSGEIRTPDTQSVRTTSGPLGPSDRNAISSPYIDPRQPVPVRIVDPSKDLNSYGLGNVDWKERVEGWKLKQEKNMLQMTGKYHEGKGGEIEGTGSNGEELQMADDTRLPMSRVVPIPSSRLTPYRVVIILRLIILCFFLQYRTTHPVKNAYPLWLTSVICEIWFAFSWLLDQFPKWYPINRETYLDRLAIRYDRDGEPSQLVPVDVFVSTVDPLKEPPLVTANTVLSILSVDYPVDKVACYVSDDGSAMLTFESLSETAEFAKKWVPFCKKFNIEPRAPEFYFAQKIDYLKDKIQPSFVKERRAMKREYEEFKVRINALVAKAQKIPEEGWTMQDGTPWPGNNTRDHPGMIQVFLGHSGGLDTDGNELPRLIYVSREKRPGFQHHKKAGAMNALIRVSAVLTNGAYLLNVDCDHYFNNSKAIKEAMCFMMDPAIGKKCCYVQFPQRFDGIDLHDRYANRNIVFFDINMKGLDGIQGPVYVGTGCCFNRQALYGYDPVLTEEDLEPNIIVKSCCGSRKKGKSSKKYNYEKRRGINRSDSNAPLFNMEDIDEGFEGYDDERSILMSQRSVEKRFGQSPVFIAATFMEQGGIPPTTNPATLLKEAIHVISCGYEDKTEWGKEIGWIYGSVTEDILTGFKMHARGWISIYCNPPRPAFKGSAPINLSDRLNQVLRWALGSIEILLSRHCPIWYGYHGRLRLLERIAYINTIVYPITSIPLIAYCILPAFCLITDRFIIPEISNYASIWFILLFISIAVTGILELRWSGVSIEDWWRNEQFWVIGGTSAHLFAVFQGLLKVLAGIDTNFTVTSKATDEDGDFAELYIFKWTALLIPPTTVLLVNLIGIVAGVSYAVNSGYQSWGPLFGKLFFALWVIAHLYPFLKGLLGRQNRTPTIVIVWSVLLASIFSLLWVRINPFVDANPNANNFNGKGGVF
B2: CESA3 (cellulose synthase, primary cell wall), MbYTH fusion (protein, UniProt Q941L0 1-1065)
chain: MESEGETAGKPMKNIVPQTCQICSDNVGKTVDGDRFVACDICSFPVCRPCYEYERKDGNQSCPQCKTRYKRLKGSPAIPGDKDEDGLADEGTVEFNYPQKEKISERMLGWHLTRGKGEEMGEPQYDKEVSHNHLPRLTSRQDTSGEFSAASPERLSVSSTIAGGKRLPYSSDVNQSPNRRIVDPVGLGNVAWKERVDGWKMKQEKNTGPVSTQAASERGGVDIDASTDILADEALLNDEARQPLSRKVSIPSSRINPYRMVIMLRLVILCLFLHYRITNPVPNAFALWLVSVICEIWFALSWILDQFPKWFPVNRETYLDRLALRYDREGEPSQLAAVDIFVSTVDPLKEPPLVTANTVLSILAVDYPVDKVSCYVSDDGAAMLSFESLAETSEFARKWVPFCKKYSIEPRAPEWYFAAKIDYLKDKVQTSFVKDRRAMKREYEEFKIRINALVSKALKCPEEGWVMQDGTPWPGNNTRDHPGMIQVFLGQNGGLDAEGNELPRLVYVSREKRPGFQHHKKAGAMNALVRVSAVLTNGPFILNLDCDHYINNSKALREAMCFLMDPNLGKQVCYVQFPQRFDGIDKNDRYANRNTVFFDINLRGLDGIQGPVYVGTGCVFNRTALYGYEPPIKVKHKKPSLLSKLCGGSRKKNSKAKKESDKKKSGRHTDSTVPVFNLDDIEEGVEGAGFDDEKALLMSQMSLEKRFGQSAVFVASTLMENGGVPPSATPENLLKEAIHVISCGYEDKSDWGMEIGWIYGSVTEDILTGFKMHARGWRSIYCMPKLPAFKGSAPINLSDRLNQVLRWALGSVEILFSRHCPIWYGYNGRLKFLERFAYVNTTIYPITSIPLLMYCTLPAVCLFTNQFIIPQISNIASIWFLSLFLSIFATGILEMRWSGVGIDEWWRNEQFWVIGGVSAHLFAVFQGILKVLAGIDTNFTVTSKASDEDGDFAELYLFKWTTLLIPPTTLLIVNLVGVVAGVSYAINSGYQSWGPLFGKLFFAFWVIVHLYPFLKGLMGRQNRTPTIVVVWSVLLASIFSLLWVRIDPFTSRVTGPDILECGINC
B3: CESA6 (cellulose synthase, primary cell wall), MbYTH fusion (protein, UniProt Q94JQ6 1-1084)
chain: MNTGGRLIAGSHNRNEFVLINADENARIRSVQELSGQTCQICRDEIELTVDGEPFVACNECAFPVCRPCYEYERREGNQACPQCKTRFKRLKGSPRVEGDEEEDDIDDLDNEFEYGNNGIGFDQVSEGMSISRRNSGFPQSDLDSAPPGSQIPLLTYGDEDVEISSDRHALIVPPSLGGHGNRVHPVSLSDPTVAAHPRPMVPQKDLAVYGYGSVAWKDRMEEWKRKQNEKLQVVRHEGDPDFEDGDDADFPMMDEGRQPLSRKIPIKSSKINPYRMLIVLRLVILGLFFHYRILHPVKDAYALWLISVICEIWFAVSWVLDQFPKWYPIERETYLDRLSLRYEKEGKPSGLSPVDVFVSTVDPLKEPPLITANTVLSILAVDYPVDKVACYVSDDGAAMLTFEALSETAEFARKWVPFCKKYCIEPRAPEWYFCHKMDYLKNKVHPAFVRERRAMKRDYEEFKVKINALVATAQKVPEDGWTMQDGTPWPGNSVRDHPGMIQVFLGSDGVRDVENNELPRLVYVSREKRPGFDHHKKAGAMNSLIRVSGVLSNAPYLLNVDCDHYINNSKALREAMCFMMDPQSGKKICYVQFPQRFDGIDRHDRYSNRNVVFFDINMKGLDGLQGPIYVGTGCVFRRQALYGFDAPKKKKGPRKTCNCWPKWCLLCFGSRKNRKAKTVAADKKKKNREASKQIHALENIEEGRVTKGSNVEQSTEAMQMKLEKKFGQSPVFVASARMENGGMARNASPACLLKEAIQVISCGYEDKTEWGKEIGWIYGSVTEDILTGFKMHSHGWRSVYCTPKLAAFKGSAPINLSDRLHQVLRWALGSVEIFLSRHCPIWYGYGGGLKWLERLSYINSVVYPWTSLPLIVYCSLPAICLLTGKFIVPEISNYASILFMALFSSIAITGILEMQWGKVGIDDWWRNEQFWVIGGVSAHLFALFQGLLKVLAGVDTNFTVTSKAADDGEFSDLYLFKWTSLLIPPMTLLIINVIGVIVGVSDAISNGYDSWGPLFGRLFFALWVIIHLYPFLKGLLGKQDRMPTIIVVWSILLASILTLLWVRVNPFVAKGGPILEICGLDCL
B4: CESA4 (cellulose synthase, secondary cell wall), MbYTH fusion (protein, UniProt Q84JA6 1-1049)
chain: MEPNTMASFDDEHRHSSFSAKICKVCGDEVKDDDNGQTFVACHVCVYPVCKPCYEYERSNGNKCCPQCNTLYKRHKGSPKIAGDEENNGPDDSDDELNIKYRQDGSSIHQNFAYGSENGDYNSKQQWRPNGRAFSSTGSVLGKDFEAERDGYTDAEWKERVDKWKARQEKRGLVTKGEQTNEDKEDDEEEYLDAEARQPLWRKVPISSSKISPYRIVIVLRLVILVFFFRFRILTPAKDAYPLWLISVICEIWFALSWILDQFPKWFPINRETYLDRLSMRFERDGEKNKLAPVDVFVSTVDPLKEPPIITANTILSILAVDYPVNKVSCYVSDDGASMLLFDTLSETSEFARRWVPFCKKYNVEPRAPEFYFSEKIDYLKDKVQTTFVKDRRAMKREYEEFKVRINALVAKAQKKPEEGWVMQDGTPWPGNNTRDHPGMIQVYLGKEGAFDIDGNELPRLVYVSREKRPGYAHHKKAGAMNAMVRVSAVLTNAPFMLNLDCDHYINNSKAIRESMCFLMDPQLGKKLCYVQFPQRFDGIDLNDRYANRNIVFFDINMRGLDGIQGPVYVGTGCVFNRPALYGYEPPVSEKRKKMTCDCWPSWICCCCGGGNRNHKSDSSKKKSGIKSLFSKLKKKTKKKSDDKTMSSYSRKRSSTEAIFDLEDIEEGLEGYDELEKSSLMSQKNFEKRFGMSPVFIASTLMENGGLPEATNTSSLIKEAIHVISCGYEEKTEWGKEIGWIYGSVTEDILTGFRMHCRGWKSVYCMPKRPAFKGSAPINLSDRLHQVLRWALGSVEIFFSRHCPLWYAWGGKLKILERLAYINTIVYPFTSIPLLAYCTIPAVCLLTGKFIIPTINNFASIWFLALFLSIIATAILELRWSGVSINDLWRNEQFWVIGGVSAHLFAVFQGLLKVLFGVDTNFTVTSKGASDEADEFGDLYLFKWTTLLIPPTTLIILNMVGVVAGVSDAINNGYGSWGPLFGKLFFAFWVIVHLYPFLKGLMGRQNRTPTIVVLWSILLASIFSLVWVRIDPFLPKQTGPLLKQCGVDC

target: T1, KOR1N, N-terminal part of KOR1 with the transmembrane domain (AA 1 to 94), MbYTH fusion (Arabidopsis thaliana); test: two-hybrid; split-ubiquitin membrane-based yeast two-hybrid (MbYTH) in S. cerevisiae NMY51; bait fused to Cub-TF, prey to NubG; 100 colonies of each combination spotted on selective medium with 3-AT, 30°C, three days, grown spots counted; called 'in vitro' by the paper

Binder	binding
B1	binds
B2	binds
B3	binds
B4	binds

target: T2, KORRIGAN1 (KOR1), complete protein (AA 1 to 621), MbYTH fusion (Arabidopsis thaliana); test: as above

Binder	binding
B4	binds

target: T3, KOR1TMD, only the transmembrane domain of KOR1 (AA 70 to 94), MbYTH fusion (Arabidopsis thaliana); test: as above

Binder	binding
B1	binds
B2	binds
B3	binds
B4	binds

target: T4, KOR1C, transmembrane domain plus the C-terminal part of KOR1 (AA 70 to 621), MbYTH fusion (Arabidopsis thaliana); test: as above

Binder	binding
B1	binds
B2	binds
B3	binds
B4	binds
